In publication PMC3871820:
Read-outs that look alike come from different tables or passages of the source. No constants are given. Whether binding was seen depends on the method and setting.

Amino acid sequences for entries named in this document (tags omitted).
UniProt Q9SJK7: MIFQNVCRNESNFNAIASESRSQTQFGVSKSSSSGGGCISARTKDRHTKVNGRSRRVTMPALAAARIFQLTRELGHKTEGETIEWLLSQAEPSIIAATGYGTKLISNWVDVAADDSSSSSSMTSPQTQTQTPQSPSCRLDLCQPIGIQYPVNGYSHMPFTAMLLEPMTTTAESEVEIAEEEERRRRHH
UniProt Q93Z00: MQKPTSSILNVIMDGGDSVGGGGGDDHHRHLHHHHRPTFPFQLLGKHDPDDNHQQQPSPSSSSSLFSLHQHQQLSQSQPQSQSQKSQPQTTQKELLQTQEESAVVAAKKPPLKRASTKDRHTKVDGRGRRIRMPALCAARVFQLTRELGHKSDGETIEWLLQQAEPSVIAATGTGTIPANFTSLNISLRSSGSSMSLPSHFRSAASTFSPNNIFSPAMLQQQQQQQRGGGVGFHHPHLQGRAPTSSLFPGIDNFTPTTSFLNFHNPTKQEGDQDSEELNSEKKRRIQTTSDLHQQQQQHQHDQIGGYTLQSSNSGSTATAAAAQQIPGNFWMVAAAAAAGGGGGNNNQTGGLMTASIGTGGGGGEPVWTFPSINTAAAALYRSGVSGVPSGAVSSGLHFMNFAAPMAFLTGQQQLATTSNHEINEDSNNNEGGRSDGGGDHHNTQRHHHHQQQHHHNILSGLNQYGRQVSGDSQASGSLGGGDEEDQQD
UniProt Q9LQF0: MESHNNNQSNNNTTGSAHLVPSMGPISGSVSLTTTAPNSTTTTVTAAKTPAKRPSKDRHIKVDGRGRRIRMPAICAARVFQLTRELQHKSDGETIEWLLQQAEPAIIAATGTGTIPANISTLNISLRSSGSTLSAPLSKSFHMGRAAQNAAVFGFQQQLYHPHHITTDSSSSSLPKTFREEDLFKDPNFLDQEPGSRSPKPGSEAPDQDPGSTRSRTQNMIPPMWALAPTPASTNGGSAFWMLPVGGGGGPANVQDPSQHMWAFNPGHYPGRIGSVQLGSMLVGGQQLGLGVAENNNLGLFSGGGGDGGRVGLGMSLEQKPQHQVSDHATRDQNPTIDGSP
UniProt Q9C518: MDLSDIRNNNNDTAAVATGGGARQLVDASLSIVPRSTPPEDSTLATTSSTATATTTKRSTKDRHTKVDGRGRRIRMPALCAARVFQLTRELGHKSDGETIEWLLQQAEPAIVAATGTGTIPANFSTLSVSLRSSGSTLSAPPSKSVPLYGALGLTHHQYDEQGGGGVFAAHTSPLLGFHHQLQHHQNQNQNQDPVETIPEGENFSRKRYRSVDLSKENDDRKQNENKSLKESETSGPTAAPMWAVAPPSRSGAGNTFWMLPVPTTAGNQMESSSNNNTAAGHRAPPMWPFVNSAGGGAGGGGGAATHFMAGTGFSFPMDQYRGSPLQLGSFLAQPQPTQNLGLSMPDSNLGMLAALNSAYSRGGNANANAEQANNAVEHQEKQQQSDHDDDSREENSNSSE
UniProt O64647: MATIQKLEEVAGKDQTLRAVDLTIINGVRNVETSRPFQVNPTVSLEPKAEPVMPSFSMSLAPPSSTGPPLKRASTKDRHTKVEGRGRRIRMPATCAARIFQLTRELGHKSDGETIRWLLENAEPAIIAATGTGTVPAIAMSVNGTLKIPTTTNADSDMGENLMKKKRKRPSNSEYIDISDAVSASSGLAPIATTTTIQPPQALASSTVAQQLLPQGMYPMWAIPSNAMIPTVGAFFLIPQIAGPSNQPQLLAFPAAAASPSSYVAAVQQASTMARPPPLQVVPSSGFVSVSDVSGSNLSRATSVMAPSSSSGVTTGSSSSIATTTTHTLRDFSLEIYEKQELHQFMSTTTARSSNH

Key:
Test in all cases: two-hybrid; matrix-based GAL4 yeast two-hybrid by mating (baits in PJ69-4alpha, preys in PJ69-4a); selection on SD-Leu-Trp-Ade or SD-Leu-Trp-His with 5 and 10 mM 3-amino-1,2,4-triazole; scored after 5 days at 30 °C; BD baits of TCP1, 2, 4, 10, 12, 18, 20 and 24 excluded for auto-activation; positive only if reproducible with at least two selection markers
[1] = target: T1, TCP17 (Arabidopsis thaliana) (UniProt Q9LEZ9)
T1 sequence: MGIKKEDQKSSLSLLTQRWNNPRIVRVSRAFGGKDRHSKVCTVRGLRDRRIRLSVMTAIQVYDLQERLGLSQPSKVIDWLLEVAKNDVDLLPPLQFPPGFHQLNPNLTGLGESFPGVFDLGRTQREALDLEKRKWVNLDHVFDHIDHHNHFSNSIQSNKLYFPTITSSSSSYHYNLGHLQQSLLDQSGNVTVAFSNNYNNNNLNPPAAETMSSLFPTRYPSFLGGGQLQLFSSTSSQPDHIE

[2] = target: TCP11 (Arabidopsis thaliana) (UniProt Q9SJK7)
[3] = target: TCP14 (Arabidopsis thaliana) (UniProt Q93Z00)
[4] = target: T2, TCP16 (Arabidopsis thaliana) (UniProt Q9M1U4)
T2 sequence: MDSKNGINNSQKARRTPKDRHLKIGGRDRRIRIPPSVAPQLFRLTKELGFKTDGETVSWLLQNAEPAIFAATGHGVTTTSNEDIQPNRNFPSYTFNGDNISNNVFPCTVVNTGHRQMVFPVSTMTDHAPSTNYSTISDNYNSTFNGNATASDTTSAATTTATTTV

[5] = target: T1, TCP17 (Arabidopsis thaliana); remark: listed apart in the source
[6] = target: T3, TCP19 (Arabidopsis thaliana) (UniProt Q9LT89)
T3 sequence: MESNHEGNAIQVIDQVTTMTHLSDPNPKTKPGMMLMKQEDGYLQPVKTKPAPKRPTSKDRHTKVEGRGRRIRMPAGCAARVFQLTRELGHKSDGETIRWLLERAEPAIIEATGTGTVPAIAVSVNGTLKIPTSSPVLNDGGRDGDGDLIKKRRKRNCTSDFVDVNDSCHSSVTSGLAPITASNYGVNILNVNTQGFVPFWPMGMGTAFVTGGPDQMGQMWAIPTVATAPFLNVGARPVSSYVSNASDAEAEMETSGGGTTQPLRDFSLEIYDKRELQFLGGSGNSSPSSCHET

[7] = target: TCP23 (Arabidopsis thaliana) (UniProt Q9LQF0)
[8] = target: T4, TCP6 (Arabidopsis thaliana) (UniProt Q9FLM6)
T4 sequence: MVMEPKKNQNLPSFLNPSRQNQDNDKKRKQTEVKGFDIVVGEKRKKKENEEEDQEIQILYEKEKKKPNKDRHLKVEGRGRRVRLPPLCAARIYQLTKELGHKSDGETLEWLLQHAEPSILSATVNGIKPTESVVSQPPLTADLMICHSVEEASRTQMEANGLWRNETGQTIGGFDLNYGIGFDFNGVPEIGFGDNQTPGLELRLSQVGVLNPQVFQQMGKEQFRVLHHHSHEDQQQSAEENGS

[9] = target: TCP8 (Arabidopsis thaliana) (UniProt Q9C518)

Measured: binding

TCP9 (from UniProt O64647 1-356)
no binding: [1]

B1: TCP1 (protein, UniProt Q9FYG7 1-359)
chain: MSSSTNDYNDGNNNGVYPLSLYLSSLSGHQDIIHNPYNHQLKASPGHMVSAVPESLIDYMAFKSNNVVNQQGFEFPEVSKEIKKVVKKDRHSKIQTAQGIRDRRVRLSIGIARQFFDLQDMLGFDKASKTLDWLLKKSRKAIKEVVQAKNLNNDDEDFGNIGGDVEQEEEKEEDDNGDKSFVYGLSPGYGEEEVVCEATKAGIRKKKSELRNISSKGLGAKARGKAKERTKEMMAYDNPETASDITQSEIMDPFKRSIVFNEGEDMTHLFYKEPIEEFDNQESILTNMTLPTKMGQSYNQNNGILMLVDQSSSSNYNTFLPQNLDYSYDQNPFHDQTLYVVTDKNFPKGKVWIQDSFVN
not listed: [1]
no binding: all other assays above

B2: TCP12 (protein, UniProt A0AQW4 1-356)
chain: MFPSLDTNGYDLFDPFIPHQTTMFPSFITHIQSPNSHHHYSSPSFPFSSDFLESFDESFLINQFLLQQQDVAANVVESPWKFCKKLELKKKNEKCVDGSTSQEVQWRRTVKKRDRHSKICTAQGPRDRRMRLSLQIARKFFDLQDMLGFDKASKTIEWLFSKSKTSIKQLKERVAASEGGGKDEHLQVDEKEKDETLKLRVSKRRTKTMESSFKTKESRERARKRARERTMAKMKMRLFETSETISDPHQETREIKITNGVQLLEKENKEQEWSNTNDVHMVEYQMDSVSIIEKFLGLTSDSSSSSIFGDSEECYTSLSSVRGMSTPREHNTTSIATVDEEKSPISSFSLYDYLCY
not listed: [1]
no binding: all other assays above

B3: TCP18 (protein, UniProt A1YKT1 1-433)
chain: MNNNIFSTTTTINDDYMLFPYNDHYSSQPLLPFSPSSSINDILIHSTSNTSNNHLDHHHQFQQPSPFSHFEFAPDCALLTSFHPENNGHDDNQTIPNDNHHPSLHFPLNNTIVEQPTEPSETINLIEDSQRISTSQDPKMKKAKKPSRTDRHSKIKTAKGTRDRRMRLSLDVAKELFGLQDMLGFDKASKTVEWLLTQAKPEIIKIATTLSHHGCFSSGDESHIRPVLGSMDTSSDLCELASMWTVDDRGSNTNTTETRGNKVDGRSMRGKRKRPEPRTPILKKLSKEERAKARERAKGRTMEKMMMKMKGRSQLVKVVEEDAHDHGEIIKNNNRSQVNRSSFEMTHCEDKIEELCKNDRFAVCNEFIMNKKDHISNESYDLVNYKPNSSFPVINHHRSQGAANSIEQHQFTDLHYSFGAKPRDLMHNYQNMY
not listed: [1]
no binding: all other assays above
